# Results taken from the supplement of paper PMC12425257.
# ± gives the standard deviation of the averaged measurements. The list shows a part of the results.
# Test system: Madurella mycetomatis MM55
# Test: metabolic activity (growth) relative to DMSO growth control; higher = more fungal growth
Compound,metabolic activity (1 µM) [%],metabolic activity (2 µM) [%],metabolic activity (10 µM) [%]
CC(C)NC(=O)N1CC[C@H](NC2=Nc3cc(F)ccc3N(CC(F)F)c3ccc(Cl)cc32)C1,79.7 ± 41,65.4 ± 16,137 ± 19
C=CC(=O)Nc1cc(-n2c(=O)ccc3cnc4ccc(-c5ccc(NS(C)(=O)=O)cc5)cc4c32)ccc1C,85.4 ± 18,99.3 ± 33,109 ± 1.2
CN(C)C(=O)/C(C#N)=C/c1ccc(-c2nc3cnc4[nH]ccc4c3n2C2CCCCC2)o1,93.7 ± 3.4,118 ± 5.3,109 ± 8.6
CCn1c(-c2nonc2N)nc2cncc(C(=O)N3CC[C@H](N)C3)c21.Cl,124 ± 35,116 ± 8.7,111 ± 3.9
Cc1ncc2n1CCN(c1nc(C3=C(c4c[nH]c5sccc45)C(=O)NC3=O)c3ccccc3n1)C2,114 ± 20,93.8 ± 13,98.4 ± 8.6
CC[C@@H](CO)Nc1nc(Nc2cccc(NC(=O)C(C)(C)C)c2)ncc1F,107 ± 7.5,113 ± 21,126 ± 5.8
CC[C@@H]1C(=O)N(C)c2cnc(Nc3ccc(C(=O)NC4CCN(C)CC4)cc3OC)nc2N1C1CCCC1,106 ± 22,76.1 ± 1.3,88.4 ± 4.4
CC1=C(C(=O)Nc2ccc3[nH]ncc3c2)C(c2ccc3ccccc3c2)CC(=O)N1 (centres undefined),95.8 ± 2.8,105 ± 36,107.1 ± 0.2
CCS(=O)(=O)Nc1cccc(Oc2cc(F)cc(Nc3ccc(I)cc3F)c2NS(=O)(=O)C2CC2)c1,107 ± 5.4,123 ± 32,111 ± 30
CCc1cc(Nc2nccc(-c3c(-c4ccc(OC)c(C(=O)Nc5c(F)cccc5F)c4)nc4ccccn34)n2)c(OC)cc1N1CCC(N2CCN(S(C)(=O)=O)CC2)CC1,111 ± 15,96.5 ± 20,107 ± 11
Cn1cc(-c2cnc3ccc4ccc(COC(=O)NCc5ccccn5)cc4c(=O)c3c2)cn1,99.4 ± 14,133 ± 6.8,120 ± 12
CN(C)C/C=C/C(=O)Nc1ccc(C(=O)Nc2cccc(Nc3ncc(Cl)c(-c4c[nH]c5ccccc45)n3)c2)cc1,111 ± 22,76.9 ± 25,113 ± 2
NCC1CCC(CNc2nc(NCc3ccccc3OC(F)(F)F)ncc2[N+](=O)[O-])CC1 (centres undefined),96.2 ± 35,82.2 ± 9.2,111 ± 35
CN1CCN(c2nc(C3=C(c4c[nH]c5ccsc45)C(=O)NC3=O)c3ccc(F)cc3n2)CC1,120 ± 11,89.2 ± 30,118 ± 18
Nc1nccc(-c2c(-c3ccc(F)cc3)ncn2CCCN2CCOCC2)n1,90.5 ± 19,91.1 ± 5.8,104 ± 3.3
CCC(=O)Nc1cc(Nc2cc(NC3CC3)n3ncc(C#N)c3n2)ccc1C,85.5 ± 4.9,87.9 ± 28,95.9 ± 20
Cl.O=C(O[C@H]1CN[C@H](C#Cc2cc3ncnc(Nc4ccc5c(cnn5Cc5ccccc5)c4)c3s2)C1)N1CCOCC1,94 ± 2.3,92.8 ± 21,118 ± 33
Cc1cc(NC(=O)c2cccc(NC(=O)/C=C/CN(C)C)c2)ccc1Nc1nccc(-c2cccnc2)n1,94.9 ± 8.6,53.2 ± 73,100 ± 37
O=C(Nc1n[nH]c2nc(-c3ccc(O)cc3)c(Br)cc12)C1CC1,94.5 ± 21,116 ± 26,82 ± 11
Cc1c(Cn2c(C)nn3c(=O)cc(N4CCO[C@H](C)C4)nc23)cccc1C(F)(F)F,87.9 ± 20,97.5 ± 25,97.1 ± 24
NS(=O)(=O)c1ccc(N/N=C2\C(=O)Nc3ccc(C(=O)NCc4ccncc4)cc32)cc1,98 ± 17,96.7 ± 21,95.7 ± 19
CC(C)N1CCN(Cc2cnc(-c3cc(-c4cccc5[nH]ccc45)cc4[nH]ncc34)o2)CC1,97.1 ± 21,88.4 ± 17,120 ± 24
Nc1ncnc2c1N=C(c1ccccc1)CCN2,100 ± 24,75.5 ± 38,89.4 ± 14
O=C(NCCCN1CCOC1=O)c1cnc(NCc2cc(Cl)ccc2Cl)nc1NC1CCCC1,92.1 ± 7.8,89 ± 13,99.3 ± 16
CC[C@@H]1CO[C@H](C(=O)Nc2ccccc2)CN1c1cc(-c2ccc3c(N)n[nH]c3c2)nc(NC)n1,93.6 ± 16,89.9 ± 14,108 ± 6.1
CCC(=O)Nc1cccc(Oc2nc(Nc3ccc(N4CCN(C)CC4)cc3OC)ncc2Cl)c1,97.8 ± 11,71.6 ± 0.97,76.7 ± 14
OC[C@H]1C[C@@H](Nc2nc(NCCc3cccnc3)ncc2-c2[nH+]c3ccccc3s2)[C@H](O)[C@@H]1O,93.5 ± 30,88.7 ± 16,101 ± 26
Cc1nccc(-c2c(-c3ccc(F)cc3)ncn2CCCN2CCOCC2)n1,81.8 ± 19,86.77 ± 0.6,87.1 ± 12

# Reformatted: results already given.
Compound	metabolic activity (1 µM) [%]	metabolic activity (2 µM) [%]	metabolic activity (10 µM) [%]
CCS(=O)(=O)Nc1cccc(Oc2cc(F)cc(Nc3ccc(I)cc3F)c2NS(=O)(=O)C2CC2)c1	107 ± 5.4	123 ± 32	111 ± 30
CCC(=O)Nc1cc(Nc2cc(NC3CC3)n3ncc(C#N)c3n2)ccc1C	85.5 ± 4.9	87.9 ± 28	95.9 ± 20
